Results on 119 compounds are retold here after PubChem BioAssay AID2003 (Broad Institute, 2009).

The other results are listed elsewhere or left out. Measured potencies and affinities stand elsewhere. Where no call is shown, the source marks the result inconclusive.

The nature of the test: PubChem AID 2003. The conditions noted are these: H4 cells, SNCA 5'UTR luciferase reporter, luminescence; at 12 µM (top of the series) unless noted. On the technique in general: A reporter such as luciferase makes a cellular process visible.
On to `CC(=O)c1cnc2cc(-c3ccc(C)cc3)nn2c1C`, for which the activation turned out to be 31.3%.

In the case of `CC1CCC(NC(=O)Cn2ncc3ccccc32)CC1` (centres undefined), the activation came to 67.6%.

Regarding `Cc1cc(C2=NNC(=NCCc3ccccc3)SC2)c(C)n1CC1CCCO1` (centres undefined), the activation was determined as 61.7%.

As for `Cc1ccccc1Nc1nc(N)nc(CSc2ccc(F)cc2)n1`, the activation is 94.7%.

As for `N#Cc1c(-c2ccc(Cl)cc2)ccn2nc(C3CCCCC3)nc12`, the activation came to 50.1%.

In the case of `CCOC(=O)c1sc(Nc2ccccc2Cl)nc1C`, the activation was 53.7%.

With `Cc1ccc(-n2ncc(Cl)c2C(=O)NC2CC2)cc1`, the activation amounted to 58.7%.

Consider `COc1ccccc1C(=O)Nc1nnc(SCC(=O)NCC2CCCO2)s1` (centres undefined), for which the activation was 84.1% [at 6 µM].

Turning to `O=C(Nc1ccc(N2CCCCC2)cc1)C(Cl)c1ccccc1` (centres undefined), the activation is 90.6%.

On to `COc1cc2ccccc2cc1C(=O)Nc1nccs1`, for which the activation came out at 140%.

`Cc1csc(NC(=O)c2nc3nccc(C)n3n2)n1`: the activation turned out to be 49%.

As to `O=C(Cc1nc(=O)c2ccccc2s1)Nc1ccccc1`, the activation was -5.8%.

Regarding `O=C(Nc1nccs1)c1cc2c(s1)-c1ccccc1OC2`, the activation came to 100%.

On to `Cc1ccc2c(c1)NC(=O)c1cccnc1N2`, for which the activation was determined as 77.5%.

As for `O=C(CC(=O)c1ccccc1)Nc1cccnc1Cl`, the activation turned out to be 39.6%.

As for `Clc1ccccc1-c1nc(-c2ccccc2)n[nH]1`, the activation turned out to be 82.3%.

For the compound `CCCCSc1ncc(C(=O)OCC)c(N)n1`, the activation was found to be 23.8%.

As for `C(=C\c1ccccc1)/C=N/Nc1nc2ccccc2s1`, the activation was 178%.

With `Cc1ccc2nc(C3CCCCC3)[nH]c2c1`, the activation was found to be 44.6%.

Take `Cc1ccc(OC(=O)c2cccc([N+](=O)[O-])c2)c(-n2nc3ccccc3n2)c1`: the activation came out at 58.1%.

Turning to `O=c1c(Cl)c(N/N=C/c2ccc(Cl)cc2)cnn1-c1ccccc1`, the activation is 12.9%.

Regarding `COCCNC(=O)/C(C#N)=C/c1cc(C)n(C2CCCCC2)c1C`, the activation is 144% [at 6 µM].

As to `Cc1ccc(N=Nc2c(N)n(-c3ccccc3)[nH]c2=O)cc1`, the activation worked out at 63.2%.

Turning to `Cc1cc(C(=O)NC2CCCCC2)c(C)n1-c1ccc(F)cc1`, the activation is 29.4%.

Take `CCN1CCN(C(=O)c2cc3c(s2)-c2c(C)cccc2OC3)CC1`: the activation worked out at 44.8%.

With `O=C(/C=C1\NCC2c3ccccc3CCN2C1=O)c1ccccc1` (centres undefined), the activation was 155%.

Consider `Cc1cccn2c1nc(=S)n2C(=O)c1ccco1`, for which the activation is 154%.

In the case of `COC(=O)Cc1c(OC)ccn(CCc2c[nH]c3ccccc23)c1=O`, the activation was determined as 67.2%.

Turning to `Cc1nnc2n(c1=O)N=C(c1ccc(Cl)cc1)CS2`, the activation was determined as 64.8% [at 3 µM].

Turning to `Cc1ccc(-n2c(C)cc(C(=O)COC(=O)c3c(C)noc3C)c2C)cc1`, the activation is 52.2%.

Regarding `c1ccc(-n2nc3c(ccc4cnnc43)[nH]2)cc1`, the activation was found to be 77.7%.

As for `CC1(C)Cc2c(sc(NC(=O)Nc3ccccc3)c2C(N)=O)CO1`, the activation was 48.5%.

For the compound `CCc1sc(C(=O)Nc2ccc3c(c2)OCCO3)cc1Br`, the activation stood at 62.2%.

Take `O=C(NC1CCCC1)c1cc(-c2ccccc2)on1`: the activation was 260%.

Consider `O=C(Nc1ccc(Cl)cc1)c1ccc(OCC2CCCO2)cc1` (centres undefined), for which the activation came out at 65.2%.

Turning to `CC(C)(C)c1ccc(NC(=O)Nc2ccc(F)cc2)cc1`, the activation was -21.6%.

For the compound `Cc1ccsc1C(=O)Nc1ccc(OCc2ccccc2)cc1`, the activation worked out at 58.8%.

In the case of `C=C(C)CSc1nncn1/N=C/c1ccc(OC)cc1`, the activation was 52%.

Regarding `O=C(c1cnn(-c2ccc(Cl)cc2)c1)c1ccccc1O`, the activation is 129% [at 3 µM].

For the compound `O=c1oc(-c2ccccc2)nc2sc3c(c12)CCCC3`, the activation stood at 89.1%.

For the compound `COC(=O)CSc1nc(-c2cccs2)ccc1C#N`, the activation is 79.3%.

As for `O=c1c2ccccc2nc2oc3ccccc3n12`, the activation was determined as 58.7%.

As for `COc1ccc2c(c1)C1=NN(/C(C)=C\C(C)=O)C(c3ccccc3)C1CC2` (centres undefined), the activation was determined as 86.6%.

Consider `Cc1cc2cc(OCc3ccccc3)ccc2n1C`, for which the activation came to 110%.

As to `CC(=O)Oc1ccc(C)cc1-n1nc2ccccc2n1`, the activation was determined as 87.8%.

For `O=C(COC(=O)c1ccc[nH]c1=O)NCCc1ccc(Cl)cc1Cl`, the activation worked out at 78.8%.

For the compound `N#Cc1cc2c(nc1SCC(=O)Nc1sc3c(c1C#N)CCC3)CCCC2`, the activation stood at 55.8%.

For `COc1ccc(N2C(=O)CC(Sc3nc(C)cc(C)c3C#N)C2=O)cc1` (centres undefined), the activation was determined as 60.2%.

Turning to `CCc1c(C)nc(SCC(=O)c2cccs2)c(C#N)c1C`, the activation was found to be 44.4%.

As for `CC(C)c1ccc(-c2cc(C(=O)N3N=C(C(F)F)CC3(O)C(F)F)c3ccccc3n2)cc1` (centres undefined), the activation is -23.9%.

As to `Cc1ccc(C(=O)OCC(=O)c2cc(C)n(CC3CCCO3)c2C)cc1` (centres undefined), the activation came to 27.8%.

As to `Clc1ccc(-c2csc(Nc3ccccc3)[n+]2Cc2ccco2)c(Cl)c1`, the activation stood at 87%.

For `N/C(=N\OC(=O)/C=C/c1ccccc1Cl)c1cccnc1`, the activation was 112%.

In the case of `O=C(COC(=O)c1ccccc1[N+](=O)[O-])c1ccc2c(c1)OCO2`, the activation was 58.8%.

On to `Cc1cc(C(=O)CSc2nnnn2-c2ccccc2)c(C)n1CC1CCCO1` (centres undefined), for which the activation stood at 78%.

As to `O=C(c1ccc(Cl)s1)N1CCc2ccccc21`, the activation is 79.4%.

For the compound `Cc1cc(=O)oc2cc(NC(=O)c3ccccc3Cl)ccc12`, the activation was 98.9%.

Regarding `O=C1CCCc2nc3c(cc21)C(O)Oc1c-3ccc2ccccc12` (centres undefined), the activation came to 103%.

With `CCOC(=O)CSc1nc(-c2ccncc2)ccc1C#N`, the activation is 51.5%.

For the compound `Cc1ccc(NC(=O)CN2CCCCCC2)c(Br)c1`, the activation was 95.9%.

Turning to `CCOC(=O)c1cnc(SCC(=O)c2ccccc2)nc1N`, the activation was found to be 100% [at 6 µM].

With `Cc1ccc(C(=O)Nc2ccc(C(F)(F)F)n(C)c2=O)cc1`, the activation stood at 51.8%.

Turning to `Cn1c(=O)c(/C=C/c2ccccc2)nc2ccccc21`, the activation was 62.2%.

Turning to `Cc1ccc2c(CC(=O)N3CCc4ccccc43)coc2c1`, the activation turned out to be 44%.

For `Fc1ccc(N2CCN(c3cnc4ccccc4n3)CC2)cc1`, the activation was 127%.

For `O=C(NNC(=O)c1cc2ccccc2cc1O)c1cccs1`, the activation was 23.7% [at 6 µM].

In the case of `CCOC(=O)c1sc(=NC(=O)c2ccc(C)c(C)c2)n(C)c1C`, the activation was 88.5%.

In the case of `COc1ccc(-n2nnnc2-c2nc3ccccc3s2)cc1`, the activation was -31.3%.

On to `Cc1cccnc1NC(=S)NC(=O)c1cccs1`, for which the activation was determined as 222%.

As for `Clc1c(CSc2nc3ccccc3o2)nc2ccccn12`, the activation is -12.7%.

Consider `COc1ccc2c(COC(=O)c3n[nH]c4ccccc34)cc(=O)oc2c1`, for which the activation worked out at 57.3%.

Regarding `O=C(Nc1cnc2ccccc2c1)N1CCCCC1`, the activation amounted to 15.8%.

Consider `O=C(Nc1ccc(Br)cc1)c1ccc(CSC2=NCCS2)cc1`, for which the activation is 26.3%.

Take `Cc1ccccc1OCc1nnc2c3cnn(C)c3ncn12`: the activation worked out at 42.9%.

On to `NC(=O)C1=C[C@H](C2CCCCC2)C[C@H](OCc2ccc(CO)cc2)O1`, for which the activation amounted to 49.3%.

For the compound `Cc1cc(C)c2nc(-n3nc(C)cc3N)cc(C)c2c1`, the activation came to 63.8%.

As for `O=C(N/N=C/c1sc(=O)n(-c2ccccc2)c1Cl)c1ccccc1`, the activation came to 26.8%.

For the compound `CCCCn1nnc(N(C(=O)c2cccs2)C(=O)c2cccs2)n1`, the activation came out at 75.8%.

As to `O=C(N/N=C/c1ccccc1O)NC12CC3CC(CC(C3)C1)C2`, the activation came to 37%.

As for `COc1ccc(Cn2c(C3CC3)nc3ccc(NC(=O)C4CC4)cc3c2=O)cc1`, the activation is 22.5%.

For `CCOc1cc(/C=N/NC(=O)Nc2ccccc2)ccc1O`, the activation is 140%.

`CC(C)(C)c1ccc(C(=O)NC(=S)N2CCOCC2)cc1`: the activation is 63.8%.

Take `CCOC(=O)c1sc(=NC(=O)/C=C/c2cccs2)n(C)c1C`: the activation is 132%.

In the case of `CC1(C)CC(=O)c2cnc(N3CCc4ccccc4C3)nc2C1`, the activation was 123% [at 6 µM].

With `O=[N+]([O-])c1ccc2nc(-c3ccc(Cl)cc3)n(OCc3ccccc3)c2c1`, the activation is 31.6%.

`CSc1nsc(N/N=C/c2ccc3c(c2)OCO3)c1C#N`: the activation is 217%.

As for `C/C(=N\Nc1ccc(C(=O)O)cc1)c1nc2ccccc2n1C`, the activation came to 85.5%.

As to `COc1cc2c(cc1NC(=O)c1ccccc1F)CCCC2`, the activation amounted to 72.3%.

Take `O=C(Nc1cnc2sccn2c1=O)c1ccccc1Cl`: the activation came out at 45.5%.

Regarding `O=C(NCCc1c[nH]c2ccccc12)c1cnc2sccn2c1=O`, the activation came out at 49.7%.

Turning to `S=C(N/N=C/c1ccc(Br)cc1)N1CCCCC1`, the activation worked out at 62.8%.

For the compound `COC(=O)CCN1CCc2cc(N=Nc3ccc([N+](=O)[O-])cc3)ccc21`, the activation amounted to 142% [at 6 µM].

Turning to `Brc1ccc(-c2csc(NC3=NCCCCC3)n2)cc1`, the activation is 78.6% [at 6 µM].

Consider `COc1ccc2c(c1)oc(=O)c1c3ccccc3[nH]c21`, for which the activation stood at 131%.

On to `O=C(/C=C/c1c(F)cccc1Cl)Nc1ncccn1`, for which the activation worked out at 106%.

For the compound `Cc1ccc(C(=O)Nc2nc3ccccc3c(=O)s2)cc1`, the activation was 41.7%.

On to `CC(C)(C)c1cc(NCCCn2ccnc2)n2ncc(-c3ccccc3)c2n1`, for which the activation was determined as 23.3%.

With `Cc1ccnc(NC(=O)c2ccc(NC(=O)c3ccco3)cc2)c1`, the activation turned out to be 75.1%.

Regarding `Cc1cc(NC(=O)OC2CCCCC2)ccc1[N+](=O)[O-]`, the activation amounted to 43.8%.

With `c1csc(-c2cn3ccc4ccccc4c3n2)c1`, the activation is 55.1%.

In the case of `CCc1ccc2oc(-c3cc(N=Cc4cccc(OC)c4O)ccc3O)nc2c1`, the activation worked out at 3.1%.

Regarding `Cc1nc2c(C(=O)N3CCCCC3)cnn2c(C)c1Cc1ccccc1F`, the activation worked out at 56.8%.

With `COc1ccc(/C=C2\CCn3c2nc2ccccc2c3=O)cc1OC`, the activation is 73.6%.

For `c1ccc2nc(-c3ccc(-n4ccnc4)cc3)ccc2c1`, the activation is -19.3%.

With `CCOc1ccc2c(c1)sc(=NC(=O)C1CC1)n2C`, the activation stood at 60%.

Take `O=C(CSc1nnc(-c2cccnc2)o1)Nc1ccccn1`: the activation is 10.4%.

In the case of `CSc1ccc(/C=N/n2c(C)cc(C)cc2=O)cc1`, the activation turned out to be 31.4%.

On to `CC1CCC(=C(C#N)c2nc(-c3cc4ccccc4oc3=O)cs2)CC1` (centres undefined), for which the activation worked out at 81.6%.

Take `Cc1ccc2oc(-c3cccc(NC(=O)Cn4cnc5c(=O)n(C)c(=O)n(C)c54)c3)nc2c1`: the activation worked out at 37.1%.

Consider `CCC(=C/c1sc2ccc3ccccc3c2[n+]1C)/C=C1\Sc2ccc3ccccc3c2N1C`, for which the activation is -39.3%.

`O=C(COc1ccccc1F)N/N=C1\CCCc2ccccc21`: the activation was found to be 84.1%.

As for `c1ccc(OCCSc2nnnn2C2CCCCC2)cc1`, the activation is -13.2%.

On to `O=c1c2cc(-c3ccccc3)sc2ncn1/N=C/c1ccco1`, for which the activation is 41.7%.

As to `CSc1nccc(N/N=C/c2ccccc2)n1`, the activation worked out at 93.6%.

With `CC1(C)Cc2c(sc3nc(-c4cc5ccccc5o4)n(N)c(=O)c23)CO1`, the activation amounted to 131%.

For `COC(=O)c1c(-c2cccnc2)csc1NC(=O)c1cc(C)on1`, the activation was found to be 51.3%.

On to `Nc1nn2cc(-c3ccc(Br)cc3)nc2c2ccccc12`, for which the activation was 139%.

Turning to `N#Cc1c(NC(=O)c2ccccc2)sc2c1CCC2`, the activation was found to be 15.5%.

As to `Cc1ccc2c(c1)sc1nc(=O)n(-c3cccc(Cl)c3)c(=O)n12`, the activation amounted to 62%.
